In patent US20200271654A1, “Quantifying MGMT Protein For Optimal Cancer Therapy” (Expression Pathology, Inc., priority 2017, published 2020):
“Also recorded” adds a separate entry of the source. At least one compound was matched to its structure with a doubt left.

Tested on: advanced colorectal cancer (CRC)
Assay: Survival of advanced colorectal cancer patients treated with temozolomide, stratified by tumor MGMT protein level (SRM mass spectrometry)
Type: in vivo
From the text: 24 patients from Fondazione IRCCS Istituto Nazionale dei TumoriVia Venezian, Milan, Italy, were identified with advanced colorectal cancer (CRC). Tumors were surgically removed prior to treatment and archived as formalin-fixed, paraffin-embedded (FFPE) tissue and all were histologically colorectal cancer. All 24 patients were subsequently treated with temozolomide.
Archived formalin-fixed, paraffin-embedded tissue sections were obtained from patients with advanced CRC treated with temozolomide (n=24). A board-certified pathologist marked the tumor areas. Based on the markups, tumor cells were laser microdissected and solubilized to tryptic peptides using the Liquid Tissue process. In each liquefied sample, multiple protein biomarkers including MGMT were quantified by selected reaction monitoring (SRM) mass spectrometry (MS). A mixture of stable isotope-labeled heavy peptides including the MGMT fragment peptide TTLDSPLGK was added prior to MS analysis. Each sample was analyzed in triplicate. […] The Mantel-Cox log-rank and Gehan-Breslow-Wilcoxon tests were used for survival comparisons.

Cn1nnc2c(C(N)=O)ncn2c1=O [temozolomide]
overall survival, MGMT <200 amol/μg vs above 200 amol/μg (comparison in words): longer overall survival; also recorded: slight difference
progression-free survival, MGMT <200 amol/μg vs above 200 amol/μg (comparison in words (FIG. 2)): longer progression-free survival
